The results are deposited in PubChem (AID504749; NCATS, 2011).

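A panel of P. falciparum strains inside erythrocytes is exposed to compounds for three days, then a DNA-binding dye reports the amount of parasite DNA. Each compound was titrated across a series from about 0.000037 to 29 µM. The number is the fitted AC50, the concentration giving a half-maximal change in signal; a lower value means higher potency, whether the curve shows a decrease or an increase. Calls follow the curve class and fit quality: every row here is inconclusive, covering signal-raising curves and weak, poorly fitted, partial or highest-dose-only inhibition curves.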

Values are in µM. All entries here are filed as inconclusive. Only part of the assay is shown, chiefly results filed as inconclusive. Potencies fitted to partial, single-point or poorly fitting curves are rough. The first word of each remark tells which way the curve ran; it can be opposite to the aim of the assay.

structure: CCN(CC)CCC(=O)N1c2ccccc2Sc2ccc(C(F)(F)F)cc21
condition: DIV30
potency (µM): 19.01
curve: inhibitor, partial curve, poor fit

structure: CCN(CC)CCC(=O)N1c2ccccc2Sc2ccc(C(F)(F)F)cc21
condition: Dd2
potency (µM): 10
curve: inhibitor, partial curve

structure: CCN(CC)CCC(=O)N1c2ccccc2Sc2ccc(C(F)(F)F)cc21
condition: PC15
potency (µM): 8.912
curve: inhibitor, single point

structure: CCN(CC)CCC(=O)N1c2ccccc2Sc2ccc(C(F)(F)F)cc21
condition: CP247
potency (µM): 10
curve: inhibitor, single point

structure: CCN(CC)CCC(=O)N1c2ccccc2Sc2ccc(C(F)(F)F)cc21
condition: P93_24
potency (µM): 10
curve: inhibitor, single point

structure: CCN(CC)CCC(=O)N1c2ccccc2Sc2ccc(C(F)(F)F)cc21
condition: CP291
potency (µM): 8.492
curve: inhibitor, partial curve, poor fit

structure: CCN(CC)CCC(=O)N1c2ccccc2Sc2ccc(C(F)(F)F)cc21
condition: DIV17
potency (µM): 9.528
curve: inhibitor, partial curve

structure: CCN(CC)CCC(=O)N1c2ccccc2Sc2ccc(C(F)(F)F)cc21
condition: CP256
potency (µM): 11.22
curve: inhibitor, single point

structure: CCN(CC)CCC(=O)N1c2ccccc2Sc2ccc(C(F)(F)F)cc21
condition: ICS
potency (µM): 7.08
curve: inhibitor, partial curve

structure: CCN(CC)CCOC(=O)C(O)(c1ccccc1)c1ccccc1
condition: CP335
potency (µM): 4.256
curve: inhibitor, single point

structure: CCN(CC)CCOC(=O)C(O)(c1ccccc1)c1ccccc1
condition: CP297
potency (µM): 16.94
curve: inhibitor, single point

structure: CCN(CC)CCOC(=O)C(O)(c1ccccc1)c1ccccc1
condition: DIV14
potency (µM): 8.492
curve: activator, partial curve, poor fit

structure: CCN(CC)CCOC(=O)C(O)(c1ccccc1)c1ccccc1
condition: CP215
potency (µM): 19.01
curve: inhibitor, single point

structure: CCN(CC)CCOC(=O)C(O)(c1ccccc1)c1ccccc1
condition: CP256
potency (µM): 11.22
curve: inhibitor, single point

structure: CCOC(=O)c1c(N)sc2c1CCN(Cc1ccccc1)C2
condition: CP262
potency (µM): 19.01
curve: inhibitor, single point

structure: CCOC(=O)c1c(N)sc2c1CCN(Cc1ccccc1)C2
condition: CP265
potency (µM): 11.22
curve: inhibitor, partial curve

Repeated from the top, 2 entries:

structure,condition,potency (µM),curve
CCN(CC)CCC(=O)N1c2ccccc2Sc2ccc(C(F)(F)F)cc21,DIV30,19.01,"inhibitor, partial curve, poor fit"
CCN(CC)CCC(=O)N1c2ccccc2Sc2ccc(C(F)(F)F)cc21,Dd2,10,"inhibitor, partial curve"